About 210 (0.4%) of roughly 52,000 sequences were called active.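 How the source made its calls: active means gene whose silencing raises cell survival under the drug, median off-target-corrected z-score across its silencing RNAs 2 or more; inactive means the rest.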 This is one part of the list.
Assay: Resistance to Poly (ADP-Ribose) Polymerase inhibitor: Gene Identification via Genome-wide siRNA Screen
Conditions: mouse BRCA2 R2336H ES cells, olaparib, CellTiter-Glo viability; stronger effect = higher value
How it was run: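 Genome-wide siRNA screen (3 siRNAs/gene, 20 nM) in mouse ES cells carrying hypomorphic BRCA2 R2336H; olaparib 500 nM added 48 h post-transfection, CellTiter-Glo viability 72 h later. Normalized to plate-median negative control; MAD z-scores, gene median, seed-adjusted.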

Row | Sequence | z-score
1 | CCGCUUUUCAUAACACGAATT against BC027556 | inactive: -1.41
2 | GGUGUAACUCCUUCAUUGATT against 6330500D04Rik | inactive: 0.286
3 | GCCGCUACUCUCCUCAAAATT against 1110007C09Rik | inactive: 1.02
4 | GGGUUUUACUAUGUAGCUCTT against Olfr94 | inactive: -0.385
5 | CCGCAAAGUGAGCAAGGUGTT against Idb1 | inactive: 0.999
6 | GCUUGCUGACAUGAUUCCUTT against Ndrg2 | inactive: -1.31
7 | GGUUGGUUUGGAGAAGGCATT against Krt1-24 | inactive: -0.372
8 | GGAGACCCUUGAUAGCCCATT against Brunol6 | inactive: -0.0402
9 | GCUGGAAAACCGACAACUCTT against DXImx47e | inactive: 0.872
10 | GGUUUGCCUGUGCUGAUAUTT against Olfr549 | inactive: -0.43
11 | CGAAUAGAUCAAGUGAGACTT against 1700001L23Rik | inactive: 0.253
12 | GGAGAAAUAAGAAAUUUGGTT against 1700047E16Rik | inactive: 0.279
13 | GCCUCACAGAUUGAUAAUATT against Akt3 | inactive: 0.735
14 | GCUUCACGAUUAAAACUAATT against Ltb4r1 | inactive: 0.736
15 | CGUCAUGCAUUUUUCUAAATT against Trim24 | inactive: 0.844
16 | GGUCCCUGUGAACAAGCUGTT against Serpinf1 | inactive: -1.16
17 | GGAAGGUUGCUGAAGAACGTT against 6030449J21 | inactive: 1.17
18 | CGGCCUCAGUUUAGAAUUATT against Plat | inactive: 0.114
19 | GGAACUCCUUAAUUGAACATT against A930009M04Rik | inactive: -0.175
20 | GUAAGGUAUUCAGUGACCUTT against Olfml2a | inactive: -0.54
21 | GGACUCCCUGAAGUAGUGATT against V1re2 | inactive: -0.491
22 | GGUGGAUUUCUACUAUGAUTT against Abcf3 | inactive: 0.476
23 | GCUACUUGGAGUCUAUUUGTT against C1ql3 | inactive: -0.795
24 | CCUAUGGCCAUUAUGAGCCTT against Rcn3 | inactive: 1.18
25 | GGCGUAGGUUCUUUACUGGTT against 3110007P09Rik | inactive: 0.991
26 | GCAUUGGCUGUACUACUAUTT against Psg18 | inactive: -0.196

Quoted from the listing (four entries):
Row | Sequence | z-score
13 | GCCUCACAGAUUGAUAAUATT against Akt3 | inactive: 0.735
14 | GCUUCACGAUUAAAACUAATT against Ltb4r1 | inactive: 0.736
15 | CGUCAUGCAUUUUUCUAAATT against Trim24 | inactive: 0.844
16 | GGUCCCUGUGAACAAGCUGTT against Serpinf1 | inactive: -1.16

The results go on.

Row | Sequence | z-score
27 | GGCCACCGUUCAAAAAAUUTT against Dctn5 | inactive: -1.81
28 | GGCAAAUUAGAGGAAAAGUTT against Zfp354a | inactive: 0.566
29 | GAGCAUCUGUGUAGAAGUGTT against Thrsp | inactive: -1.03
30 | GGAUGCAGAGACCUAUUUCTT against Cacng5 | inactive: -0.0995
31 | CGAGAAAUUGUAGAAGUAATT against Thrap6 | inactive: 0.249
32 | GCCCAGGACAAUAUAUCCGTT against Mylc2b | inactive: 0.894
33 | GCUCAAUGGCUACACGGAUTT against Ace | inactive: 1.18
34 | GGUAGUGGCUAAUGCUGUGTT against 2410002I01Rik | inactive: 0.938
35 | GGUGUUUACCUGUGACGAGTT against Zfp509 | inactive: -0.816
36 | GGAAAAAUUUAAAGAGGUCTT against Dnajb4 | inactive: 0.929
37 | CGUCUGAACACUUCAAGACTT against Vamp8 | inactive: 1.6
38 | GGUCCUUGUACAACCACCCTT against Acd | inactive: -0.287
39 | GAGUGGGAUUAUGUUCAAUTT against Krtap16-5 | inactive: -0.232
40 | GGAUCUGAGCCUUAACAAGTT against Grcc3f | inactive: -0.352
41 | CCAACUUUUAGUCUAGAAATT against Mat2a | inactive: -1.89
42 | GCUUGUAGACUUCCUCCUGTT against Olfr524 | inactive: 0.105
43 | CUACAGUCGCAUCAACUAUTT against 1700055M20Rik | inactive: 0.933
44 | GGUAAGCUAAAUGAAAUGGTT against 9930104E21Rik | inactive: 1.21
45 | CGAAAGCAUUGCCUACUUUTT against 2700067D09Rik | inactive: 0.231
46 | GGAAAAAUGCUACAUACAATT against Slc15a2 | inactive: -0.619
47 | AGUUCCAGGCGCAGAAACCTT against D8Ertd738e | inactive: 0.997
48 | GCUCUUCAUUGAAUCUCGGTT against Per1 | inactive: 0.502
49 | GGCCUUGAGAGGCUAAUACTT against Tisp78 | inactive: -1.74
50 | GGCAGAAAUGCUGGAGAUUTT against Ncald | inactive: -0.871
51 | GCUGACUUUUUGACAUUGUTT against Rab39 | inactive: 0.0783
52 | GCGGUCAACUGGAAACUAATT against Dnaja3 | inactive: -1.67

Row | Sequence | z-score
53 | GGUGAGGAUUGAUAAUGAGTT against Rit2 | inactive: 0.842
54 | CGGCAUGGUGACCUAAUGCTT against 4632406N01Rik | inactive: 0.313
55 | GGCAAAUCAAGCAGAAAAUTT against Ncor1 | inactive: 0.152
56 | GGACCAUGCACGAUACUCUTT against Foxn1 | inactive: 1.28
57 | GGUAAUUGAAAGAGGAGAGTT against Vamp4 | inactive: -1.14
58 | GGAAUGUGAACCUUAUAGATT against D9Wsu20e | inactive: 0.256
59 | GCCCUACCAAUACUACAGUTT against Lamc3 | inactive: 0.208
60 | CGCAUUCUACUCCUAUGAGTT against Pdcd2 | inactive: 1.18
61 | GGGAUGUGUGAAUAAAAAATT against Elovl7 | inactive: 0.501
62 | GGCGGUUUCACCUAUACAATT against A930029K19Rik | inactive: -1.42
63 | GCAAUUCUUGGAGUUCAAATT against 2810475A17Rik | inactive: -1.08
64 | CCCAUUAGAUGCUGAAUAUTT against Stmn1 | inactive: -0.718
65 | GGAGGUCCAUGUCCUGCUUTT against Mesp2 | inactive: 2.51
66 | GGAUUGUUGGGAAUUCUUUTT against Zfp60 | inactive: -1.09
67 | GGCAUAAGCCAUUCAGCCGTT against 2810421I24Rik | inactive: -0.666
68 | GGAAGAAAAGACAAAUCUGTT against 2810452K22Rik | inactive: 0.551
69 | GGUACUGUACUGAUGACAUTT against Dhx32 | inactive: 0.129
70 | GGCUUUGUAGAAAAUUCAUTT against Polr2a | inactive: -3.45
71 | GGACUACCUGCUCUUGAAATT against LOC626359 | inactive: 0.813
72 | GCUACAUGAUUCAGCGGAATT against Itga3 | inactive: 0.762
73 | GGUUCAUGAUGGAUGACAUTT against 2900011O08Rik | inactive: -1.93
74 | CCAUAUGGCAGUUUUGGCUTT against V1rd6 | inactive: 0.506
75 | GGCUACAAAGGAGUUCCUATT against 1700023O11Rik | inactive: 2.78
76 | GGGAAAAAGAGAGUCUAUUTT against Tenc1 | inactive: -0.115
77 | GCUUUGAUCGAUUCUCUCGTT against Syt11 | inactive: -0.0284
78 | GGUCUAUCUGAAGAACAGUTT against Xpo5 | inactive: -0.145

Row | Sequence | z-score
79 | GGGAAUUCUCCUUGAGAAUTT against BC012016 | inactive: -0.308
80 | CCGCUAGAUUUCUCUUACCTT against 1810013B01Rik | inactive: 1.1
81 | GCGUAUCGAAUGAAGAUUCTT against Gtf2a1lf | inactive: 1.02
82 | GGCAGUGGCUUGGAUAAAUTT against 5730457F11Rik | active: 2.83
83 | GGCUCCUGUAAUGCUAACUTT against 2610041B18Rik | inactive: -1.34
84 | GGAGAAGGCUGCUGAUAUUTT against Phf8 | inactive: -0.718
85 | GGAGGUCUUUUCUAAGUACTT against Pde6c | inactive: -0.939
86 | GGUGCUUUAUUAGGUAUUCTT against Atp6v1g3 | inactive: 1.01
87 | GGAGCUUUUGGACCACUUGTT against Tmod1 | inactive: -0.402
88 | GGUCGUUAUCACCAGGCUATT against Rpl26 | inactive: -2.94
89 | GGUACAAAGUCCAUUCUUGTT against Nalp10 | inactive: 0.193
90 | GGGUUUUGCCUUUGUCUAUTT against Supt4h | inactive: -1.91
91 | GGCUAUGCACUACUCAUUGTT against Galk1 | inactive: -0.389
92 | GGUAAAAUAUGGUCUCUUCTT against AI649392 | inactive: -0.151
93 | CCUAGCAUGUUUCUUGCUATT against B830028P19Rik | inactive: 0.963
94 | GGGCUUUGUGCCCAACAUGTT against D10Wsu52e | inactive: -1.94
95 | GCAGCUACGUAUACCAUGUTT against Gfm | inactive: 1.75
96 | GGUGCUAUUGUGGAUCAACTT against Zdhhc17 | inactive: 0.212
97 | GGGAAUUCAUGAUCAAGAUTT against Abca3 | inactive: -0.106
98 | GCAUUGUGAGACUAACGUGTT against Dusp7 | inactive: 2.39
99 | GGUUGAAACUGCUCUCAAGTT against Prlpm | inactive: -0.193
100 | GGAAAGAAAGACUAGUAAATT against Cpne1 | inactive: -0.782
101 | CCUCUCACCUCAAACGGAUTT against LOC547431 | inactive: 0.00167
102 | GCAGGAAGGUCAUAUCUUATT against Olfr324 | inactive: -0.0828
103 | GGGCAAGUUACAAGAAAUGTT against 2310075G12Rik | inactive: 2.38

From PubChem BioAssay AID1347423 (Functional Genomics Laboratory (NCATS/FGL), 2020)
